PubChem BioAssay AID1259326, Drosophila RNAi Screening Center | 2017
Purpose: 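RNAi screen for genes modifying zinc chloride toxicity in fly cells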. Cells: Drosophila S2R+ cells. Knock-down reagent: long dsRNA against Drosophila genes. Timing: about 5 days (4 days of RNAi, then 1 day of zinc). Conditions: zinc chloride added to 15 mM final for one day. Measured: 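Luminescent ATP signal marks surviving cells, read after RNAi for 4 days then 15 mM zinc chloride for 1 day; z-scores are replicate means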. Direction: averaged z-score: higher = more ATP than other wells, i.e. more surviving cells, after zinc; ATP luminescence: higher = more ATP, i.e. more surviving cells. Rule for the call: 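Active if the averaged z-score exceeds 1.5 or falls under -1.5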.
This is a random part of 573 reagents. Of all reagents, 39 (6.8%) are marked active. 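All actives have raised ATP, meaning more surviving cells; in these data active calls sit at averaged z-scores near 1.5 or above.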 The raw values are shown without normalisation. A number with no mark means an inactive call. The numbers tell different reagents against one gene apart. Reagent sequences are not shown. The record does not give: the amount of reagent.

gene	reagent no.	averaged z-score	ATP luminescence, replicate 1	ATP luminescence, replicate 2
Stlk (GeneID 3355135)	1	-0.0963	95619	76316
Stlk (GeneID 3355135)	2	-0.299	69687	68555
Stlk (GeneID 3355135)	3	-0.0963	65434	72620
Atg7 (GeneID 37141)	1	-0.368	1.04e5	68675
Atg7 (GeneID 37141)	2	-0.186	76479	76074
Atg7 (GeneID 37141)	3	-0.105	89190	61832
Psa (GeneID 38175)	1	-0.273	64285	96395
Psa (GeneID 38175)	2	-0.176	63930	80064
Psa (GeneID 38175)	3	-0.218	61198	74386
Pex23 (GeneID 40229)	1	-0.398	60821	69070
Pex23 (GeneID 40229)	2	-0.2	92603	72591
Pex23 (GeneID 40229)	3	-0.00785	85656	60632
Cul2 (GeneID 35420)	1	0.349	1.03e5	82623
Cul2 (GeneID 35420)	2	0.228	88795	71162
Cul2 (GeneID 35420)	3	0.0505	68709	75277
p38a (GeneID 42866)	1	-0.281	90253	72500
p38a (GeneID 42866)	2	-0.343	77937	70956
p38a (GeneID 42866)	3	-0.0563	77096	70373
CG31251 (GeneID 318645)	1	0.0893	80647	97613
CG31251 (GeneID 318645)	2	0.0436	72279	78692
Mhc (GeneID 35007)	1	-0.306	83066	73169
Mhc (GeneID 35007)	2	-0.32	75518	66823
Mhc (GeneID 35007)	3	0.984	91677	95005
Hel25E (GeneID 33781)	1	4.19 (active)	84026	1.87e5
Hel25E (GeneID 33781)	2	7.87 (active)	2.05e5	2.22e5
Hel25E (GeneID 33781)	3	7.39 (active)	2.46e5	1.78e5
14-3-3epsilon (GeneID 42186)	1	-0.375	75793	81522
14-3-3epsilon (GeneID 42186)	2	-0.0884	66926	71934
14-3-3epsilon (GeneID 42186)	3	-0.303	77199	70150

Part of the list above, reduced to “ATP luminescence, replicate 1”.
Atg7 (GeneID 37141) #3: 89190
Psa (GeneID 38175) #1: 64285
Psa (GeneID 38175) #2: 63930
